# In the supplement of paper PMC8728848:
# Some of the results follow.
# B1: MFG-E8 (Mus musculus), P21956 (protein)
# chain: MQVSRVLAALCGMLLCASGLFAASGDFCDSSLCLNGGTCLTGQDNDIYCLCPEGFTGLVCNETERGPCSPNPCYNDAKCLVTLDTQRGDIFTEYICQCPVGYSGIHCETETNYYNLDGEYMFTTAVPNTAVPTPAPTPDLSNNLASRCSTQLGMEGGAIADSQISASSVYMGFMGLQRWGPELARLYRTGIVNAWTASNYDSKPWIQVNLLRKMRVSGVMTQGASRAGRAEYLKTFKVAYSLDGRKFEFIQDESGGDKEFLGNLDNNSLKVNMFNPTLEAQYIKLYPVSCHRGCTLRFELLGCELHGCSEPLGLKNNTIPDSQMSASSSYKTWNLRAFGWYPHLGRLDNQGKINAWTAQSNSAKEWLQVDLGTQRQVTGIITQGARDFGHIQYVASYKVAHSDDGVQWTVYEEQGSSKVFQGNLDNNSHKKNIFEKPFMARYVRVLPVSWHNRITLRLELLGC
# Columns and labels:
# Test in all cases: glycan array binding signal (z-score within array); higher = stronger binding
# Conditions in all cases: glycan notation: IUPAC condensed, linker removed
# [1] = biological target: GlcA3S(b1-3)Gal(b1-4)GlcNAc(b1-3)Gal(b1-4)Glc
# Procedure, shortened: (§1)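 Arrays were curated from the Consortium for Functional Glycomics database, 3228 in total, and kept only where the protein sequence was available. Binding is expressed as a within-array Z-score. This score was averaged across arrays of the same protein sequence at different concentrations or buffers and across linkers, and negative values can be read as non-binding.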
# [2] = biological target: GlcNAc(a1-3)Gal(b1-4)GlcNAc
# Procedure, shortened: as §1
# [3] = biological target: GlcNAc(a1-4)Gal(b1-3)GlcNAc
# Procedure, shortened: as §1
# [4] = biological target: GlcNAc(a1-4)Gal(b1-4)GalNAc
# Procedure, shortened: as §1
# [5] = biological target: GlcNAc(a1-4)Gal(b1-4)GlcNAc
# Procedure, shortened: as §1
# [6] = biological target: GlcNAc(a1-4)Gal(b1-4)GlcNAc(b1-3)Gal(b1-4)Glc
# Procedure, shortened: as §1
# [7] = biological target: GlcNAc(a1-4)Gal(b1-4)GlcNAc(b1-3)Gal(b1-4)GlcNAc
# Procedure, shortened: as §1
# [8] = biological target: GlcNAc(a1-4)Gal(b1-4)GlcNAc(b1-3)Gal(b1-4)GlcNAc(b1-3)Gal(b1-4)GlcNAc
# Procedure, shortened: as §1
# [9] = biological target: GlcNAc(a1-4)Gal(b1-4)GlcNAc(b1-3)Gal(b1-4)[Fuc(a1-3)]GlcNAc(b1-3)Gal(b1-4)[Fuc(a1-3)]GlcNAc
# Procedure, shortened: as §1
# [10] = biological target: GlcNAc(a1-6)Gal(b1-4)GlcNAc
# Procedure, shortened: as §1
# [11] = biological target: GlcNAc(b1-2)Gal(b1-3)GalNAc
# Procedure, shortened: as §1
# [12] = biological target: GlcNAc(b1-2)Man(a1-3)[GlcNAc(b1-2)Man(a1-6)]Man(b1-4)GlcNAc(b1-4)GlcNAc
# Procedure, shortened: as §1
# [13] = biological target: GlcNAc(b1-2)Man(a1-3)[GlcNAc(b1-2)Man(a1-6)]Man(b1-4)GlcNAc(b1-4)[Fuc(a1-6)]GlcNAc
# Procedure, shortened: as §1
# [14] = biological target: GlcNAc(b1-2)Man(a1-3)[GlcNAc(b1-4)][GlcNAc(b1-2)Man(a1-6)]Man(b1-4)GlcNAc(b1-4)GlcNAc
# Procedure, shortened: as §1
# [15] = biological target: GlcNAc(b1-2)Man(a1-3)[GlcNAc(b1-4)][GlcNAc(b1-2)Man(a1-6)]Man(b1-4)GlcNAc(b1-4)[Fuc(a1-6)]GlcNAc
# Procedure, shortened: as §1
# [16] = biological target: GlcNAc(b1-2)[GlcNAc(b1-4)]Man(a1-3)[GlcNAc(b1-2)Man(a1-6)]Man(b1-4)GlcNAc(b1-4)GlcNAc
# Procedure, shortened: as §1
# [17] = biological target: GlcNAc(b1-2)[GlcNAc(b1-4)]Man(a1-3)[GlcNAc(b1-4)][GlcNAc(b1-2)Man(a1-6)]Man(b1-4)GlcNAc(b1-4)GlcNAc
# Procedure, shortened: as §1
# [18] = biological target: GlcNAc(b1-2)[GlcNAc(b1-4)]Man(a1-3)[GlcNAc(b1-4)][GlcNAc(b1-2)[GlcNAc(b1-6)]Man(a1-6)]Man(b1-4)GlcNAc(b1-4)GlcNAc
# Procedure, shortened: as §1
# [19] = biological target: GlcNAc(b1-2)[GlcNAc(b1-4)]Man(a1-3)[GlcNAc(b1-4)][GlcNAc(b1-2)[GlcNAc(b1-6)]Man(a1-6)]Man(b1-4)GlcNAc(b1-4)[Fuc(a1-6)]GlcNAc
# Procedure, shortened: as §1
# [20] = biological target: GlcNAc(b1-2)[GlcNAc(b1-6)]Man(a1-6)[GlcNAc(b1-2)Man(a1-3)]Man(b1-4)GlcNAc(b1-4)GlcNAc
# Procedure, shortened: as §1
# [21] = biological target: GlcNAc(b1-2)[GlcNAc(b1-6)]Man(a1-6)[GlcNAc(b1-2)Man(a1-3)]Man(b1-4)GlcNAc(b1-4)[Fuc(a1-6)]GlcNAc
# Procedure, shortened: as §1
# [22] = biological target: GlcNAc(b1-2)[GlcNAc(b1-6)]Man(a1-6)[GlcNAc(b1-2)Man(a1-3)][GlcNAc(b1-4)]Man(b1-4)GlcNAc(b1-4)GlcNAc
# Procedure, shortened: as §1
# [23] = biological target: GlcNAc(b1-2)[GlcNAc(b1-6)]Man(a1-6)[GlcNAc(b1-4)][GlcNAc(b1-2)Man(a1-3)]Man(b1-4)GlcNAc(b1-4)GlcNAc
# Procedure, shortened: as §1
# GlcNAc(b1-3)Fuc = biological target: GlcNAc(b1-3)Fuc
# Procedure, shortened: as §1
# GlcNAc(b1-3)Gal = biological target: GlcNAc(b1-3)Gal
# Procedure, shortened: as §1
# [24] = biological target: GlcNAc(b1-3)Gal(b1-3)GalNAc
# Procedure, shortened: as §1
# GlcNAc(b1-3)Gal(b1-4)Glc = biological target: GlcNAc(b1-3)Gal(b1-4)Glc
# Procedure, shortened: as §1
# [25] = biological target: GlcNAc(b1-3)Gal(b1-4)GlcNAc
# Procedure, shortened: as §1
# [26] = biological target: GlcNAc(b1-3)Gal(b1-4)GlcNAc(b1-2)Man(a1-3)[GlcNAc(b1-3)Gal(b1-4)GlcNAc(b1-2)Man(a1-6)]Man(b1-4)GlcNAc(b1-4)GlcNAc
# Procedure, shortened: as §1
# [27] = biological target: GlcNAc(b1-3)Gal(b1-4)GlcNAc(b1-2)Man(a1-3)[GlcNAc(b1-3)Gal(b1-4)GlcNAc(b1-2)Man(a1-6)]Man(b1-4)GlcNAc(b1-4)[Fuc(a1-6)]GlcNAc
# Procedure, shortened: as §1
# [28] = biological target: GlcNAc(b1-3)Gal(b1-4)GlcNAc(b1-2)[GlcNAc(b1-3)Gal(b1-4)GlcNAc(b1-6)]Man(a1-6)[GlcNAc(b1-3)Gal(b1-4)GlcNAc(b1-2)Man(a1-3)]Man(b1-4)GlcNAc(b1-4)GlcNAc
# Procedure, shortened: as §1
# [29] = biological target: GlcNAc(b1-3)Gal(b1-4)GlcNAc(b1-3)Gal(b1-4)GlcNAc
# Procedure, shortened: as §1
# [30] = biological target: GlcNAc(b1-3)Gal(b1-4)GlcNAc(b1-3)Gal(b1-4)GlcNAc(b1-2)Man(a1-3)[GlcNAc(b1-3)Gal(b1-4)GlcNAc(b1-3)Gal(b1-4)GlcNAc(b1-2)Man(a1-6)]Man(b1-4)GlcNAc(b1-4)GlcNAc
# Procedure, shortened: as §1
# [31] = biological target: GlcNAc(b1-3)Gal(b1-4)GlcNAc(b1-3)Gal(b1-4)GlcNAc(b1-2)Man(a1-3)[GlcNAc(b1-3)Gal(b1-4)GlcNAc(b1-3)Gal(b1-4)GlcNAc(b1-2)Man(a1-6)]Man(b1-4)GlcNAc(b1-4)[Fuc(a1-6)]GlcNAc
# Procedure, shortened: as §1
# [32] = biological target: GlcNAc(b1-3)Gal(b1-4)GlcNAc(b1-3)Gal(b1-4)GlcNAc(b1-2)[GlcNAc(b1-3)Gal(b1-4)GlcNAc(b1-3)Gal(b1-4)GlcNAc(b1-6)]Man(a1-6)[GlcNAc(b1-3)Gal(b1-4)GlcNAc(b1-3)Gal(b1-4)GlcNAc(b1-2)Man(a1-3)]Man(b1-4)GlcNAc(b1-4)[Fuc(a1-6)]GlcNAc
# Procedure, shortened: as §1
# [33] = biological target: GlcNAc(b1-3)Gal(b1-4)GlcNAc(b1-3)Gal(b1-4)GlcNAc(b1-3)Gal(b1-4)GlcNAc(b1-2)Man(a1-3)[GlcNAc(b1-3)Gal(b1-4)GlcNAc(b1-3)Gal(b1-4)GlcNAc(b1-3)Gal(b1-4)GlcNAc(b1-2)Man(a1-6)]Man(b1-4)GlcNAc(b1-4)GlcNAc
# Procedure, shortened: as §1
# [34] = biological target: GlcNAc(b1-3)Gal(b1-4)GlcNAc(b1-3)Gal(b1-4)GlcNAc(b1-3)Gal(b1-4)GlcNAc(b1-2)Man(a1-3)[GlcNAc(b1-3)Gal(b1-4)GlcNAc(b1-3)Gal(b1-4)GlcNAc(b1-3)Gal(b1-4)GlcNAc(b1-2)Man(a1-6)]Man(b1-4)GlcNAc(b1-4)[Fuc(a1-6)]GlcNAc
# Procedure, shortened: as §1
# [35] = biological target: GlcNAc(b1-3)Gal(b1-4)GlcNAc(b1-3)Gal(b1-4)GlcNAc(b1-3)Gal(b1-4)GlcNAc(b1-2)[GlcNAc(b1-3)Gal(b1-4)GlcNAc(b1-3)Gal(b1-4)GlcNAc(b1-3)Gal(b1-4)GlcNAc(b1-6)]Man(a1-6)[GlcNAc(b1-3)Gal(b1-4)GlcNAc(b1-3)Gal(b1-4)GlcNAc(b1-3)Gal(b1-4)GlcNAc(b1-2)Man(a1-3)]Man(b1-4)GlcNAc(b1-4)[Fuc(a1-6)]GlcNAc
# Procedure, shortened: as §1
binder,measurement,setting,value
B1,glycan array binding signal (z-score),[1],-0.389
same,glycan array binding signal (z-score),[2],-0.136
same,glycan array binding signal (z-score),[3],-0.48
same,glycan array binding signal (z-score),[4],5.5
same,glycan array binding signal (z-score),[5],-0.566
same,glycan array binding signal (z-score),[6],0.036
same,glycan array binding signal (z-score),[7],0.443
same,glycan array binding signal (z-score),[8],0.185
same,glycan array binding signal (z-score),[9],0.423
same,glycan array binding signal (z-score),[10],-0.114
same,glycan array binding signal (z-score),[11],0.853
same,glycan array binding signal (z-score),[12],-0.045
same,glycan array binding signal (z-score),[13],-0.213
same,glycan array binding signal (z-score),[14],-0.607
same,glycan array binding signal (z-score),[15],-0.174
same,glycan array binding signal (z-score),[16],1.21
same,glycan array binding signal (z-score),[17],-0.227
same,glycan array binding signal (z-score),[18],-0.387
same,glycan array binding signal (z-score),[19],-0.153
same,glycan array binding signal (z-score),[20],0.452
same,glycan array binding signal (z-score),[21],1.93
same,glycan array binding signal (z-score),[22],0.127
same,glycan array binding signal (z-score),[23],-0.499
same,glycan array binding signal (z-score),GlcNAc(b1-3)Fuc,-0.349
same,glycan array binding signal (z-score),GlcNAc(b1-3)Gal,-0.534
same,glycan array binding signal (z-score),[24],-0.33
same,glycan array binding signal (z-score),GlcNAc(b1-3)Gal(b1-4)Glc,-0.131
same,glycan array binding signal (z-score),[25],-0.613
same,glycan array binding signal (z-score),[26],-0.422
same,glycan array binding signal (z-score),[27],-0.259
same,glycan array binding signal (z-score),[28],-0.881
same,glycan array binding signal (z-score),[29],-0.128
same,glycan array binding signal (z-score),[30],0.331
same,glycan array binding signal (z-score),[31],-0.299
same,glycan array binding signal (z-score),[32],-0.08
same,glycan array binding signal (z-score),[33],-0.513
same,glycan array binding signal (z-score),[34],0.828
same,glycan array binding signal (z-score),[35],-0.431

# As a short view, some entries already given:
binder,measurement,setting,value
B1,glycan array binding signal (z-score),[16],1.21
same,glycan array binding signal (z-score),[17],-0.227
